Tags and fusion partners may be left off the protein sequences shown.
Target: T1, MBP-STF full length (STENOFOLIA) (Medicago truncatula) (UniProt G0ZGT3)
T1 sequence (looked up): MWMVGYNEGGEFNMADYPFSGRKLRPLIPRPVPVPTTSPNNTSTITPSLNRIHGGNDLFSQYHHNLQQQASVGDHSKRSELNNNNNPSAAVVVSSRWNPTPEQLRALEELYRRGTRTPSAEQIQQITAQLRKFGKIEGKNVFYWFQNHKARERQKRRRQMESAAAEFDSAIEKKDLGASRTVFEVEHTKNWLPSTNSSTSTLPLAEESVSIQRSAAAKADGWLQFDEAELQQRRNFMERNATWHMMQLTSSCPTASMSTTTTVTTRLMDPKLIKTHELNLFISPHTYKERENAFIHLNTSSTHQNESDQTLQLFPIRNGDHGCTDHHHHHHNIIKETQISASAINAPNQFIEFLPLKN
Assay: EMSA
Conditions: 10 mM Tris pH 7.5, 50 mM KCl, 1 mM DTT, 2.5% glycerol, 0.05% NP-40, 5 mM MgCl2, 0.5 mM EDTA, 5 ng/uL poly(dI.dC), 1 ug protein, 100 fmol probe, room temperature 40 min; recombinant protein; residues 1-358; protein details: MBP (N-terminal, pMAL-c2X); label: 3' biotin

Row | Sequence | binding result
1 | ATCCATTCCAGATTGCATAAGTGCAGCGTTTCTGATCAGCCAAGCAAGAGACAAGGGTTGTTCACGTGATCATGGACCCATGACACACCATTATAGCAACCTTCCAACCTAAAAATAGACCATCAAATCCTTTTCACTCACTGTCTGCCACTCCCCAGCCTCCCTGTATTTAAACCCATGCATTAGCCGTGAGAGAAACTAAATCGAACTAAAAGAGGGTGATCCAGTGAGCACAAACATGTCTGCCTCTGTCATG (double strand) [TaPSR-D1 probe] | binds
2 | TTGCAGATACCAATGCAGTAATGCAATCTTCCTGCCTATATAAAGCACCCCGTTAGCAACCTTACAATTCAGGCGAAGAGGTTCAACGAACACAGAGAGCTCCTCTCCAAACCTCTCCCTTCTCCCCGCCAGGAGTCTAGGGTTAGAGAGAGAGAGAGAGAGTGAGACAAGAGCAAAAATAATCTCTCGCCCCACTGTTATACCAAGGTTGCATCCATCTCATATCCCTC (double strand) [TaSWEET13-D1 probe] | binds

— publication PMC5785358, “The STENOFOLIA gene from Medicago alters leaf width, flowering time and chlorophyll content in transgenic wheat”
